The experiment can be described thus: qHTS Assay for Lipid Storage Modulators in Drosophila S3 Cells.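 As to cell number change: cells counted by Cell Tracker Red CMTPX staining in the red channel.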 The note with it: BODIPY lipid droplet fluorescence, 18-24 h; for cell number change: measured here: cell count max response, cells fed with added oleic acid. In a few lines:
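Drosophila S3 cells got compounds at several concentrations plus oleic acid (400 uM solution). Laser-scanning cytometry with 488 nm excitation read lipid droplets at 500-530 nm and cells at 575-640 nm. Percent activity was relative to 20 uM Triacsin C.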

Where [1] appears, read: measured here: lipid fluorescence (Fed channel) AC50, cells fed with added oleic acid.
Setting [2] is: measured here: cell number channel AC50, cells fed with added oleic acid.

Some of the results follow. Shown are side measurements of this screen, not its main read-out; they come without a call. The list favours compounds with an active or inconclusive main result. The note in brackets gives the kind of curve behind each potency; many fits are weak.

Regarding `COc1cc(OC)cc(N2CCN(S(=O)(=O)c3ccc(-n4cnnn4)cc3)CC2)c1`, the cell number change stood at 19.7%. By AC50 is commonly meant the concentration at which the activity in the assay is half-maximal. A high value points to weaker potency. Take `Cc1cc(Cl)ccc1NC(=S)N1CCC(C(N)=O)(N2CCCCC2)CC1`: the cell number change amounted to 11.7%. Further, the AC50 under setting [1] was 0.00461 µM [rising, full curve, poor fit]. Regarding `Nc1ccccc1C(=O)NCc1ccccc1`, the cell number change was -36.5%. Further, the AC50 under setting [2] is 29.1 µM [falling, single point]. Also, the AC50 under setting [1] is 29.1 µM [falling, single point].

Consider `COc1ccc(C(=O)N/N=C/c2ccc(OC)c(COc3ccc(F)cc3)c2)cc1`, for which, under setting [1], the AC50 was 8.91 µM [falling, partial curve, poor fit]. Turning to `CCCCSc1nc(C)cc(SCC(=O)N/N=C/c2cccc(OC)c2O)n1`, the cell number change is -1.3%. Moreover, the AC50 under setting [1] was 23.1 µM [falling, single point]. As to `CCCc1cc(C(=O)Nc2ccc(Cl)cn2)cs1`, the cell number change came out at 2.48%. Also, the AC50 under setting [1] is 29.1 µM [falling, single point].

For the compound `CCCCN(C(=O)C1CSC2(C)CCC(=O)N12)c1c(N)n(CC(C)C)c(=O)[nH]c1=O` (centres undefined), the cell number change amounted to 7.65%. Also, the AC50 under setting [1] is 7.31 µM [rising, partial curve]. In the case of `Nn1c(COc2ccccc2F)nnc1SCC(=O)NC1CCCC1`, the cell number change was -13.8%. The AC50 under setting [1] is 29.1 µM [rising, single point]. In the case of `CCCCN(Cc1ccccc1)C(=O)CCN1C(=O)C2C3C=CC(C3)C2C1=O` (centres undefined), the AC50 under setting [1] is 0.13 µM [rising, full curve, poor fit].

For `O=C1CCC(C(=O)OCC(=O)c2ccccc2)N1` (centres undefined), the cell number change is -33.8%. In addition, the AC50 under setting [2] is 0.251 µM [falling, full curve, poor fit]. The AC50 under setting [1] is 0.282 µM [falling, full curve, poor fit]. As to `O=[N+]([O-])c1cc(C(F)(F)F)cc([N+](=O)[O-])c1NCCNC(=S)Nc1ccc(Cl)c(Cl)c1`, the cell number change was -71.1%. Also, the AC50 under setting [2] is 32.6 µM [falling, single point]. In addition, the AC50 under setting [1] is 32.6 µM [falling, single point]. For the compound `COc1cccc(CNC(=O)C2=Cc3cccc(OC)c3OC2)c1`, the cell number change is -20.1%. The half-maximal activity concentration (AC50) under setting [2] was 0.651 µM [falling, full curve, poor fit]. With `COCCN(C(=O)COC(=O)Cc1coc2cc3c(cc12)CCC3)c1c(N)n(Cc2ccccc2)c(=O)[nH]c1=O`, the cell number change turned out to be 41.5%. Moreover, under setting [2], the AC50 was 18.4 µM [rising, single point]. Take `CCOc1ccc(NC(=O)CNC(=O)c2ccc([N+](=O)[O-])cc2)cc1`: the AC50 under setting [2] was 2.06 µM [rising, single point]. As to `c1ccc(-c2nnc(N3CCN(c4ccccn4)CC3)c3ccccc23)cc1`, the cell number change turned out to be 268%. Under setting [2], the AC50 is 1.64 µM [rising, full curve]. Further, the AC50 under setting [1] is 1.84 µM [rising, full curve]. Consider `Cc1cc2ccccn2c1C(=O)c1cc([N+](=O)[O-])cc([N+](=O)[O-])c1`, for which the cell number change is -129%. The AC50 under setting [2] is 29.1 µM [falling, partial curve, poor fit]. Moreover, the AC50 under setting [1] was 29.1 µM [falling, partial curve]. As to `Nc1cc(C(=O)OCC(=O)N2CCOCC2)ccc1Cl`, the AC50 by setting is: under setting [2], 0.13 µM [rising, full curve, poor fit]; under setting [1], 2.91 µM [falling, single point]. `COc1ccc(N2CCN(c3oc(-c4ccco4)nc3C#N)CC2)cc1`: the cell number change was -29.4%. Further, the AC50 under setting [1] was 0.731 µM [falling, single point]. Turning to `c1ccc(-c2csc(N3CCOCC3)n2)cc1`, the cell number change was -18.8%. Under setting [2], the AC50 is 0.517 µM [falling, full curve, poor fit]. Moreover, under setting [1], the AC50 is 6.51 µM [falling, single point]. As for `COc1ccccc1CC(=O)Nc1cccc2ccccc12`, the cell number change is -9.71%. Moreover, the AC50 under setting [1] is 3.26 µM [rising, full curve, poor fit]. On to `COc1ccc(CCN(C)C(=S)NC(=O)c2ccc(F)cc2Cl)cc1OC`, for which the concentration at half-maximal activity (AC50) under setting [1] is 4.11 µM [falling, single point]. Regarding `COc1ccc(-c2nnc(C)c3nocc23)cc1`, the cell number change stood at 37.8%. Moreover, the AC50 under setting [2] was 29.1 µM [rising, single point].

`O=C(CSc1ccccn1)Nc1cccc(S(=O)(=O)N2CCCC2)c1`: the cell number change was -28.1%. For the same compound, under setting [1], the AC50 was 0.00517 µM [falling, full curve, poor fit].

Turning to `C=CCSc1nnc(-c2ccc([N+](=O)[O-])cc2)o1`, the cell number change turned out to be 16.5%. The AC50 under setting [1] was 4.61 µM [rising, single point]. On to `COc1cc([N+](=O)[O-])ccc1NC(=S)N1CCOCC1`, for which the cell number change came to 36.9%. For the same compound, the AC50 under setting [2] is 25.1 µM [rising, partial curve, poor fit]. Further, the AC50 under setting [1] was 3.16 µM [rising, partial curve, poor fit]. Take `CC(C)C(=O)NC(c1ccccc1)c1cc([N+](=O)[O-])c2cccnc2c1O` (centres undefined): the cell number change was -1.4%. Under setting [1], the AC50 is 4.61 µM [falling, single point]. Take `CN(C)CCNC(=O)C(=O)NCC1OCCN1S(=O)(=O)c1cc(F)ccc1F` (centres undefined): the cell number change came to 18.4%. Moreover, under setting [1], the half-maximal activity concentration (AC50) was 29.1 µM [falling, single point]. As to `COc1cccc(/C=N/Nc2ncnc(N)c2[N+](=O)[O-])c1OC`, the cell number change is -0.697%. In addition, under setting [1], the AC50 is 6.51 µM [falling, single point]. On to `COc1ccc(N(C(=O)c2cccnc2)S(=O)(=O)c2cccs2)cc1`, for which the cell number change was -5.41%. Further, the AC50 under setting [2] is 0.58 µM [falling, single point].

As to `CC(C)c1nc(SCC(=O)Nc2ccc([N+](=O)[O-])cc2Br)n[nH]1`, the cell number change was 30.7%. Turning to `O=C(COC(=O)/C=C/c1ccco1)NCc1ccc(Cl)cc1`, the cell number change is -14.4%. Under setting [1], the AC50 is 18.4 µM [rising, single point]. As to `COCCCn1nnnc1SCC(=O)Nc1nc2ccccc2s1`, the cell number change came out at 2.56%. As to `COc1ccc(CNC(=O)c2ccc(-c3ccccc3)cc2)cc1OC`, the cell number change was 12%. Also, the AC50 under setting [1] is 4.61 µM [rising, full curve, poor fit]. In the case of `COc1ccc(C(=O)Nc2ccccc2SCc2cc(=O)n3nc(C)sc3n2)cc1OC`, the cell number change was -1.83%. For `C=CCSc1nnc(NC(=O)CCNC(=O)c2ccco2)s1`, the cell number change worked out at 14.5%. The AC50 under setting [1] was 0.562 µM [falling, single point]. For the compound `CCOC(=O)C(=O)Nc1ccccc1C(=O)NC(C)C`, the cell number change is -26.5%. Moreover, the AC50 under setting [1] was 4.11 µM [falling, full curve, poor fit].

Take `CC(C)NC(=O)C1CCN(C2CCN(C(=O)c3scc4c3CCCC4)CC2)CC1`: the cell number change is -17.4%. Also, the AC50 under setting [1] is 23.1 µM [falling, partial curve]. For the compound `CN(CC1CCCO1)S(=O)(=O)c1ccc(C(=O)Nc2nc3cc4c(cc3s2)OCO4)cc1` (centres undefined), the cell number change stood at 2.59%. As for `NNC(=O)CSc1c(-c2cccs2)[nH]c2ccccc12`, the cell number change stood at 2.38%. Under setting [1], the AC50 is 14.6 µM [rising, partial curve].

Consider `Cc1cc2c(c(=O)o1)C(C(C)C)C(C#N)=C(N)O2` (centres undefined), for which the cell number change worked out at 1.67%. Regarding `COc1ccc(/C=C2/SC(=S)N(n3c(C)ccc3C)C2=O)cc1`, the cell number change is 6.48%. Further, the AC50 under setting [1] was 16.4 µM [rising, single point].

With `Nc1c(Cl)ncnc1N/N=C/c1ccc2ccccc2n1`, the cell number change was -33.4%. For the same compound, the AC50 under setting [2] is 20.6 µM [falling, single point]. Under setting [1], the AC50 was 29.1 µM [falling, single point]. In the case of `CCCCN(CC)Cc1ccc(CNC(=O)Nc2ccccc2)o1`, the half-maximal activity concentration (AC50) under setting [1] is 18.4 µM [falling, single point]. Same read-out and setting: the same measure for `O=C(Nc1ccc(Cl)cn1)c1ccc(COCC(F)(F)C(F)F)o1`: 5.8 µM [falling, partial curve]. For the compound `Cc1nnc2nc(-c3ccccc3)nc(-c3ccccc3)n12`, the cell number change turned out to be 12.2%. Also, the AC50 under setting [2] is 0.0058 µM [rising, full curve, poor fit]. Also, the AC50 under setting [1] is 0.0291 µM [rising, full curve]. Turning to `O=C(COC(=O)CNC(=O)c1ccc(Cl)c([N+](=O)[O-])c1)NNC(=O)c1cccs1`, the cell number change was -52.9%. Further, under setting [2], the AC50 was 29.1 µM [falling, single point].

On to `COc1ccccc1-n1c(SCC(=O)N2CCc3ccccc32)nc2c(c1=O)SCC2`, for which the cell number change was determined as 19.6%. In addition, the AC50 under setting [1] is 6.51 µM [rising, single point].

For `N#Cc1c(SCC(=O)Nc2nccs2)nc2c(c1-c1ccco1)CCCC2`, the cell number change is -2.07%. In addition, the AC50 under setting [1] is 0.164 µM [rising, full curve, poor fit]. `COc1ccc(C2=NOC(C(=O)Nc3cccc(O)c3)C2)cc1` (centres undefined): the cell number change is -31.5%. Moreover, the AC50 under setting [2] was 16.4 µM [falling, single point]. Turning to `CCOC(=O)N1CCN(Cc2cc(=O)oc3ccc(Cl)cc23)CC1`, the AC50 under setting [2] is 6.51 µM [rising, single point]. As to `COC(=O)C1=C(Nc2ccccc2NC(=O)c2ccccc2C(=O)O)CSC1`, the AC50 under setting [2] is 0.146 µM [rising, full curve]. With `O=C(c1cc2c(=O)n3ccccc3nc2s1)N1CCN(c2cccc(Cl)c2)CC1`, the cell number change was -15.8%. In the case of `O=C(Cn1c(-c2cscn2)nc2ccccc21)Nc1cc(F)ccc1F`, the cell number change was -5.94%. In addition, the AC50 under setting [2] is 4.61 µM [rising, partial curve, poor fit]. For the same compound, the AC50 under setting [1] was 4.61 µM [rising, partial curve]. Consider `Cc1[nH]c2ccccc2c1/C=C(\C#N)S(=O)(=O)c1ccccc1`, for which the AC50 under setting [2] was 0.82 µM [rising, full curve].

Take `Cc1c(C(=O)OCCOC(C)C)[nH]c2c1C(=O)CC(C)(C)C2`: the AC50 runs as follows: under setting [2], 4.61 µM [rising, single point]; under setting [1], 3.66 µM [rising, partial curve].

As for `O=C(Nc1ccccc1)Oc1cccc(Br)c1`, the cell number change is -15.7%. Regarding `CC(=O)C1=C(O)C=C(c2ccco2)CC1c1ccco1` (centres undefined), the cell number change was -13.1%. The AC50 under setting [1] was 0.116 µM [falling, full curve, poor fit]. For `COCC(=O)N1CCCC(C(=O)c2ccc(C(F)(F)F)cc2)C1` (centres undefined), the cell number change turned out to be 2.37%. Moreover, the AC50 under setting [2] is 0.731 µM [rising, single point]. Also, under setting [1], the AC50 is 6.51 µM [rising, single point]. In the case of `O=c1c2ccccc2nnn1Cc1ccc(F)cc1`, the cell number change was 56.5%. The AC50 under setting [2] was 10.3 µM [rising, partial curve, poor fit]. As to `O=S(=O)(c1ccccc1)N1CCN(Cc2ccccc2)CC1`, the cell number change turned out to be 12.6%. Further, under setting [1], the AC50 was 29.1 µM [rising, single point].

For the origin of these results see PubChem BioAssay AID2685 (National Center for Advancing Translational Sciences (NCATS), 2010).
